From publication PMC7594953 (Acta Pharmacologica Sinica, 2020)

Experiments:
[1] = system: VSV-G pseudovirus; test: microbe, parasite or virus in culture; format: cell-based; conditions: Huh-7, read-out: VSV-G pseudovirus EC50
[2] = system: SARS2-S pseudovirus; test: microbe, parasite or virus in culture; conditions: Huh-7, 48 h; for EC50: read-out: SARS2-S pseudovirus EC50
[3] = system: SARS-CoV S pseudovirus; test: microbe, parasite or virus in culture; format: cell-based; conditions: Severe acute respiratory syndrome coronavirus; for EC50: Huh-7, read-out: SARS-CoV S pseudovirus EC50
[4] = in vitro; conditions: human
[5] = system: SARS-CoV-2 (WIV04); format: cell-based
[6] = system: SARS2-S pseudovirus; test: in vitro; conditions: human
[7] = system: SARS-CoV-2; conditions: read-out: EC50 of clemastine by viral NP staining method; cited from earlier work

SMILES	EC50 [1]	EC50 [2]	EC50 [3]	CC50 ([4]; Huh7 CC50)	CC50 ([4]; Huh-7 CC50)	Activity against native SARS-CoV-2 replication (in words) [5]	selectivity ratio [6]	EC90 ([2]; read-out: SARS2-S pseudovirus EC90)	EC50 [7]	EC90 ([3]; Huh-7, read-out: SARS-CoV S pseudovirus EC90)
CCCCc1oc2ccccc2c1C(=O)c1cc(I)c(OCCN(CC)CC)c(I)c1 [Amiodarone]	11.3 µM	0.21 µM	0.6 ± 0.37 µM							
CN1CCC[C@@H]1CCO[C@](C)(c1ccccc1)c1ccc(Cl)cc1 [Clemastine]	10.5 µM	0.81 µM	1.79 ± 0.32 µM	5.9 µM	6.6 ± 1.48 µM	significantly inhibited SARS2 replication	7.96	4.34 µM	~2.3 µM	12.4 ± 1.24 µM
